# Assay results taken from PubChem BioAssay AID493014 (National Center for Advancing Translational Sciences (NCATS), 2011).
# The list shows a part of the results. These are further read-outs of the screen, such as a control signal, another cell line or another target. No call is given for them. Most of these compounds were active or inconclusive in the main read-out, so they are no random draw. Words in brackets tell the shape of the fitted curve; partial curves, single points and poor fits give uncertain potencies.
# Test: qHTS Assay to Find Inhibitors of Chronic Active B-Cell Receptor Signaling
# Settings: ABC-DLBCL IkBa-CBG/CBR reporter, luminescence ratio (green luciferase fused to IkBa over red control in TMD8 lymphoma cells), 4 h
# Summary of the method: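 Cell line TMD8 (human ABC DLBCL), stably expressing tet-inducible CBG68-IkBa fusion and CBR; IMDM/0.5% FBS; cpd up to 46 uM; dox induction, 4 h, 37C/5% CO2; dual luminescence; green/red ratio; MG132 control.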
# [1] = measured here: CBR red luminescence, cell number
# [2] = measured here: IkBa-CBG green luminescence
SMILES,AC50 [1],AC50 [2]
Cn1cccc1C(=O)NNC(=O)c1ccccc1Br,"11.6 µM [falling, single point]",–
O=C(Nc1ccc(N2CCCC2)cc1)c1ccccc1F,"1.64 µM [falling, full curve]",–
Cc1ccc(NC(=O)COc2cccc(-n3cnnn3)c2)cc1[N+](=O)[O-],"1.12 µM [rising, partial curve, poor fit]",–
Cc1cccc(-n2nnc(C(=O)NCc3ccc4c(c3)OCO4)c2N)c1,"7.94 µM [falling, partial curve, poor fit]",–
CC1CC(C)CN(C(=O)c2ccc3ncsc3c2)C1 (configuration not stated),"25.9 µM [rising, single point]",–
Cc1ccc(C(=O)NC(=S)NNC(=O)c2ccccc2[N+](=O)[O-])cc1,"32.6 µM [falling, single point]",–
CCOC(=O)C1=C(C)NC2=C(C(=O)CCC2)C1c1cn(Cc2ccc(Cl)cc2Cl)nc1-c1ccccc1 (configuration not stated),"7.08 µM [falling, full curve, poor fit]",–
O=C(N/N=C/c1c[nH]c2ccccc12)c1cc2ccccc2o1,"35.5 µM [falling, single point]",–
Cc1cc(C)cc(NC(=O)c2cc(S(=O)(=O)NCc3ccco3)ccc2F)c1,"8.91 µM [falling, partial curve, poor fit]",–
CC(C)(C)OC(=O)N1CCN(C(=O)c2[nH]cnc2C(=O)Nc2nccs2)CC1,"0.326 µM [falling, partial curve, poor fit]",–
COC(=O)c1cccc(N(CC(=O)NC2CCCC2)C(=O)CNC(=O)c2cccs2)c1,"11.2 µM [falling, partial curve, poor fit]",–
Cc1sc(N/N=C/c2cccnc2)nc1-c1ccc(Cl)cc1,"0.326 µM [rising, full curve, poor fit]",–
COc1ccc(NC(=O)Cn2nnc(-c3ccccc3NS(=O)(=O)c3ccc(OC)cc3)n2)cc1,–,"3.26 µM [falling, full curve]"
COc1ccc(/C=N/NC(=O)c2ccccc2O)cc1Cn1cc([N+](=O)[O-])cn1,"8.91 µM [falling, partial curve]",–
Cc1occc1C(=O)N/N=C/C1=C(N2CCOCC2)C(=C\c2ccc(Cl)cc2Cl)/CC1,"25.9 µM [falling, single point]",–
CC1=C/C(=N\OS(=O)(=O)c2ccccc2)C=CC1=O,"2.06 µM [rising, partial curve, poor fit]",–
COC(=O)c1sc(NC(=O)c2csc3c2CCCC3)nc1C,"2.31 µM [falling, partial curve, poor fit]",–
CCN1C(=O)CC(NNC(=O)c2ccc(Cl)cc2)C1=O (configuration not stated),"3.16 µM [falling, partial curve, poor fit]",–
O=C1CC(Cc2ccccc2)C(=O)N1c1ccc(Cl)cn1 (configuration not stated),"6.31 µM [rising, single point]",–
COc1ccccc1NS(=O)(=O)c1cc(NC(=O)Nc2ccc(Cl)cc2Cl)ccc1N1CCCCC1,"16.4 µM [rising, partial curve, poor fit]",–
O=[N+]([O-])c1ccc(S(=O)(=O)CC(CN2CCOCC2)N2CCOCC2)cc1 (configuration not stated),"1.12 µM [falling, full curve, poor fit]",–

SMILES,AC50 [1],AC50 [2]
O=c1[nH]c2ccc(Cl)cc2c(-c2ccccc2)c1SC(=S)N1CCCCC1,"29.1 µM [rising, single point]",–
COc1ccccc1NC(=O)CCn1c(=S)oc2ccccc21,"2.82 µM [rising, single point]",–
CCOCCCNC(=O)c1ccc2c(c1)ncn2C1CCCC1,"8.2 µM [rising, single point]",–
CC(C)N(Cc1nc(-c2ccccc2)no1)C(=O)CN(C)S(=O)(=O)c1ccccc1,"6.51 µM [falling, single point]",–
CCOc1ccc(/C=N/NC(=O)c2ccc(O)cc2)cc1CN1CC2CC(C1)c1cccc(=O)n1C2 (configuration not stated),"0.731 µM [falling, full curve]",–
COc1cc2c(cc1OC)C(c1ccc(OC)c(OC)c1OC)CC(=O)N2 (configuration not stated),"11.2 µM [rising, partial curve, poor fit]","11.2 µM [falling, partial curve]"
O=C(O)CCCn1cc(NC(=O)COc2ccccc2F)cn1,"14.1 µM [rising, single point]",–
Cc1cc(C)cc(NC(=O)CCc2nc3sc4c(c3c(=O)[nH]2)CCCC4)c1,"11.6 µM [rising, partial curve]",–
COc1ccc(C(=O)O/N=C(\N)c2ccccc2)c(OC)c1,"1.64 µM [falling, partial curve]","25.9 µM [falling, single point]"
COc1ccccc1NS(=O)(=O)c1cccc(NC(=O)CCNC(=O)c2ccccc2OC)c1,"29.1 µM [falling, single point]",–
CN(C)CCCO/N=C(\c1ccccc1)c1ccncc1,"0.651 µM [rising, full curve]",–
N#CC1=C(N)OC2=C(CC/C2=C\c2ccccc2Cl)C1c1ccccc1Cl (configuration not stated),"29.1 µM [falling, single point]",–
Cc1ccc(Cn2nnc3c(=O)[nH]c(C4CCCN(S(=O)(=O)c5ccccc5)C4)nc32)cc1 (configuration not stated),"1.16 µM [rising, partial curve, poor fit]",–
CCOc1ccc2nc(NC(=O)Nc3cccs3)sc2c1,"5.8 µM [rising, full curve, poor fit]",–
O=C(O)c1cc2ccc3cccc4ccc(c1)c2c34,"3.16 µM [falling, partial curve, poor fit]",–
O=C1C2=C(c3ccccc31)[N+](=O)[C@@H]1CCCC[C@@H]1N2[O-],"6.31 µM [falling, single point]","6.31 µM [rising, partial curve, poor fit]"
CCOC(=O)Nc1nc(-c2ccc(Cl)cc2Cl)cs1,"3.66 µM [rising, full curve, poor fit]",–
Cc1ccc(N(Cc2ccc(C(=O)NC3CCCCC3)cc2)S(C)(=O)=O)cc1C,"23.1 µM [falling, single point]",–
COc1cc(C(=O)OCC(=O)N2CCC(Cc3ccccc3)CC2)cc(OC)c1OC,"0.58 µM [rising, full curve, poor fit]",–
COc1ccc(C(=O)Nc2c(C)ccc3nsnc23)cc1[N+](=O)[O-],"2.31 µM [rising, full curve]",–
COc1ccc2[nH]c(C(=O)N(C)c3ccc(F)cc3F)cc2c1,"0.0891 µM [rising, full curve, poor fit]",–

# 6 compounds already listed, sorted by number of heavy atoms, falling:
SMILES,AC50 [1],AC50 [2]
CCOc1ccc(/C=N/NC(=O)c2ccc(O)cc2)cc1CN1CC2CC(C1)c1cccc(=O)n1C2 (configuration not stated),"0.731 µM [falling, full curve]",–
COc1cc(C(=O)OCC(=O)N2CCC(Cc3ccccc3)CC2)cc(OC)c1OC,"0.58 µM [rising, full curve, poor fit]",–
Cc1ccc(N(Cc2ccc(C(=O)NC3CCCCC3)cc2)S(C)(=O)=O)cc1C,"23.1 µM [falling, single point]",–
N#CC1=C(N)OC2=C(CC/C2=C\c2ccccc2Cl)C1c1ccccc1Cl (configuration not stated),"29.1 µM [falling, single point]",–
COc1ccc2[nH]c(C(=O)N(C)c3ccc(F)cc3F)cc2c1,"0.0891 µM [rising, full curve, poor fit]",–
COc1ccc(C(=O)O/N=C(\N)c2ccccc2)c(OC)c1,"1.64 µM [falling, partial curve]","25.9 µM [falling, single point]"

# The list continues:

SMILES,AC50 [1],AC50 [2]
COc1cccc(NC(=O)C(Cc2ccccc2)NC(=O)C2CCC(C)CC2)c1 (configuration not stated),"2.91 µM [falling, partial curve, poor fit]",–
CCCSc1nsc(SCCC)c1C#N,"14.6 µM [rising, partial curve, poor fit]","20.6 µM [falling, single point]"
COc1ccc(OC)c(NC(=O)CN2C(=O)NC(C)(c3ccc4c(c3)OCCO4)C2=O)c1 (configuration not stated),"29.1 µM [rising, single point]",–
Nc1cc([N+](=O)[O-])ccc1Nc1ccc(O)cc1,"14.1 µM [falling, partial curve, poor fit]","10 µM [rising, partial curve]"
COc1ccc(CNS(=O)(=O)c2ccccc2Br)cc1,"15.8 µM [falling, single point]",–
COc1ccc(/C=C2\CCCc3c2nc2ccccc2c3C(=O)OCC(=O)c2c(N)n(C)c(=O)n(C)c2=O)cc1,"29.1 µM [falling, single point]",–
Cc1cccc(C)c1NC(=O)CNC(=O)CNC(=O)Cc1cccc2ccccc12,–,"25.9 µM [falling, partial curve, poor fit]"
CSc1nc(C)cc(SCC(=O)Nc2ccccc2)n1,"0.366 µM [falling, full curve, poor fit]",–
CCOC(=O)N1CCN(Cc2cn[nH]c2-c2ccc(-c3ccccc3)cc2)CC1,"35.5 µM [falling, single point]",–
CO/N=C\CC(=O)Nc1ccc(Oc2ccccc2)cc1,"35.5 µM [rising, single point]","15.8 µM [falling, single point]"
CCc1nc(Nc2cccc(OC)c2)c2oc3ccccc3c2n1,"12.6 µM [falling, partial curve, poor fit]",–
Cc1ccccc1C(CC(=O)c1cccs1)C(C#N)C#N (configuration not stated),"10.3 µM [falling, partial curve, poor fit]",–
Cc1cc(=O)c2cc(Cl)ccc2[nH]1,"22.4 µM [falling, single point]",–
CCOC(=O)C1CCN(C(=O)c2cc3cc(F)ccc3[nH]2)CC1,"3.55 µM [falling, full curve, poor fit]",–
CCCCC(=O)N1CCN(c2nc3c(C)c(C)ccc3s2)CC1,"0.708 µM [rising, full curve, poor fit]",–
CC(C)(C)c1ccc(C(=O)N2CCC(=O)N(C(COCc3ccccc3)Cc3ccccc3)CC2)cc1 (configuration not stated),"13 µM [falling, single point]",–
Cc1cccc(NC(=O)C(=O)N/N=C/c2ccncc2)c1,"14.1 µM [falling, partial curve, poor fit]",–
CC1CCN(CC(=O)Nc2ccc(C(=O)N3CCCCC3)cc2)CC1,"3.55 µM [rising, full curve, poor fit]",–
COCCNC(=O)/C(C#N)=C/C=C/c1ccccc1,"12.6 µM [falling, partial curve]",–
